# According to PubChem BioAssay AID270 (DTP/NCI, 2004):
# The list is a part of this screen's results and no random one: it covers a few groups of compounds. Not every dose and run of a compound is shown. T/C: endpoint of the treated group in % of that of the vehicle group. Where survival is the endpoint, this PubChem deposit counts one and a half times the control or more as active, and values a quarter to a half above the control carry no call in these data; other NCI protocols may use other cut-offs. Schedules are NCI's codes, read here as Q, the interval in days (D) or hours (H), X, the number of doses. Some entries show no survivor count and are marked so; the dose need not have been tolerated. Some doses were run more than once; their values stand side by side, smallest first.
# Tested on: BDF1 mice, s.c. Lewis lung carcinoma, T/C %
# Experiment: NCI In Vivo Anticancer Drug Screen. Data for tumor model Lewis Lung Carcinoma (subcutaneous) in B6D2F1 (BDF1) mice
# Details: T/C endpoint: median survival time, schedule: Q01DX009 (ip), higher T/C = longer survival
# Protocol: The antitumor activity of compounds was measured in mice bearing transplantable tumors. Survival or tumor size were measured and the results are expressed as the measurement made in the treated group (T) divided by the measurement made in the vehicle treated control group (C). The tumor model used in this assay is Lewis Lung Carcinoma (subcutaneous) in B6D2F1 (BDF1) mice
smiles,measurement,setting,value
CC(=O)OC[C@]12C[C@H](OC(=O)CC(C)C)C(C)=C[C@H]1OC1[C@H](O)[C@@H](OC(C)=O)[C@@]2(C)[C@@]12CO2,T/C,"dose: 0.12 mg/kg/injection, vehicle: saline",106 % of control [survivor count not shown]
same,T/C,"dose: 0.25 mg/kg/injection, vehicle: saline",123 % of control [survivor count not shown]
same,T/C,"dose: 0.5 mg/kg/injection, vehicle: saline",90 % of control [survivor count not shown]
same,T/C,"dose: 1.0 mg/kg/injection, vehicle: saline",100 % of control [survivor count not shown]
CC(=O)OCC12CCC(C)=CC1OC1C(O)C(OC(C)=O)C2(C)C12CO2 (centres undefined),T/C,"dose: 0.25 mg/kg/injection, vehicle: Klucel (hydroxypropylcellulose) (HPC)",107 % of control [survivor count not shown]
same,T/C,"dose: 0.5 mg/kg/injection, vehicle: Klucel (hydroxypropylcellulose) (HPC)",102 % of control [survivor count not shown]
CC1=C[C@H]2O[C@@H]3C[C@H]4OC(=O)/C=C\C=C\C(C(C)O)OCC[C@@H](C)[C@H](O)C(=O)OC[C@@]2(CC1)[C@]4(C)[C@]31CO1 (some centres undefined),T/C,"dose: 0.04 mg/kg/injection, vehicle: saline with Tween-80",106 [survivor count not shown] and 123 % of control [survivor count not shown]
same,T/C,"dose: 0.08 mg/kg/injection, vehicle: saline with Tween-80",95 % of control [survivor count not shown]
same,T/C,"dose: 0.15 mg/kg/injection, vehicle: saline with Tween-80",141 % of control [survivor count not shown]
